This is one part of the list. Shown are side measurements of this screen, not its main read-out; they come without a call. The list favours compounds with an active or inconclusive main result. Potencies come from curve fits of mixed quality, noted in brackets.
Assay: qHTS Assay to Find Inhibitors of Chronic Active B-Cell Receptor Signaling
Conditions: ABC-DLBCL IkBa-CBG/CBR reporter, luminescence ratio (green luciferase fused to IkBa over red control in TMD8 lymphoma cells), 4 h
Summary of the method: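 Compounds up to 46 uM were incubated four hours with TMD8 cells whose green CBG68 luciferase is fused to IkappaBalpha; red CBR luminescence normalised the signal, and concentration-effect curves were fitted to fusion, red and ratio data.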

[1] = measured here: IkBa-CBG green luminescence
[2] = measured here: CBR red luminescence, cell number

Structure (SMILES) | AC50 [1] | AC50 [2]
COc1ccc(C2c3ccc(O)cc3Oc3ncn(CCN4CCOCC4)c(=N)c32)cc1 (stereo unspecified) | 8.91 µM [falling, partial curve, poor fit] | –
CCCCCC(=O)NC(=S)Nc1ccc(N2CCOCC2)cc1 | – | 16.4 µM [rising, partial curve, poor fit]
CC(=O)N1CCN(C(=S)c2ccc([N+](=O)[O-])cc2)CC1 | – | 6.51 µM [rising, partial curve, poor fit]
CCOC(=O)C1CCN(C(=O)c2cc(COc3ccc(OC)c4ccccc34)on2)CC1 | – | 2.51 µM [falling, full curve, poor fit]
COC(=O)C(CC(C)C)N(Cc1cc(OC)cc(OC)c1)S(=O)(=O)c1ccccc1Br (stereo unspecified) | – | 18.4 µM [falling, single point]
CN1CCN(C(=S)NC(=O)c2ccc(Br)cc2)CC1 | 22.4 µM [falling, single point] | 20 µM [rising, partial curve]
COC(=O)c1ccc(COc2ccc(/C=C/C(=O)c3ccc(OC)c(CSCC(=O)O)c3)cc2OC)cc1 | – | 35.5 µM [falling, single point]
CC1=C(C(=O)OCc2ccccc2)C(c2ccccc2Br)NC(=O)N1 (stereo unspecified) | – | 15.8 µM [falling, single point]
C/C=C/C(=O)OCC(=O)Nc1ccc(OC)c(OC)c1 | – | 3.55 µM [falling, partial curve, poor fit]
COc1cccc(/C=N/NC(=O)c2cccc3ccccc23)c1 | – | 22.4 µM [falling, single point]
CCCCCCC[N+](CC)(CC)CCCCc1ccc(Cl)cc1 | – | 20.6 µM [falling, single point]
Cc1cccc(C)c1NC(=O)NC1CC2CCC(C1)N2Cc1cccs1 (stereo unspecified) | – | 1.64 µM [falling, full curve, poor fit]
CCC(C)C1C(C#N)=C(N)Oc2n[nH]c(C)c21 (stereo unspecified) | – | 5.8 µM [falling, partial curve]
Cc1ccc(C)c(CN2C(=O)CSc3ccc(C(=O)NCC(C)CN4CCC(C)CC4)cc32)c1 (stereo unspecified) | – | 35.5 µM [rising, single point]
COC(=O)[C@]1(C)CCC[C@@]2(C)C3CC[C@@]4(C)C[C@]3(CCC21)CC(=O)N4Cc1ccc(OC)cc1 (stereo partly specified) | – | 2.91 µM [falling, partial curve, poor fit]
COc1ccc(NC(=O)/C(=C\c2ccncc2)NC(=O)c2ccccc2)cc1 | – | 14.1 µM [falling, partial curve, poor fit]
Cc1ccc(/C=N/NC(=O)c2ccccn2)o1 | – | 29.1 µM [falling, single point]
CC(NC(=O)c1ccco1)C(=O)N1CC=C(c2ccccc2)CC1 (stereo unspecified) | – | 2.59 µM [rising, full curve, poor fit]
Cc1ccc(C(=O)CCNc2ccc(F)c(Cl)c2)o1 | – | 3.16 µM [rising, full curve, poor fit]
CC(C)(C)Nc1nc(-c2ccc3c(c2)CCN3C(=O)C2CC2)cs1 | – | 1.58 µM [rising, full curve, poor fit]

Reformatted: results already given.
CC1=C(C(=O)OCc2ccccc2)C(c2ccccc2Br)NC(=O)N1 (stereo unspecified)
  AC50 [2]: 15.8 µM [falling, single point]
CCC(C)C1C(C#N)=C(N)Oc2n[nH]c(C)c21 (stereo unspecified)
  AC50 [2]: 5.8 µM [falling, partial curve]

Some values from the results shown:
Entry for CCCCCC(=O)NC(=S)Nc1ccc(N2CCOCC2)cc1 under AC50 [2]: 16.4 µM [rising, partial curve, poor fit]
Entry for Cc1cccc(C)c1NC(=O)NC1CC2CCC(C1)N2Cc1cccs1 (stereo unspecified) under AC50 [2]: 1.64 µM [falling, full curve, poor fit]

Further compounds

Structure (SMILES) | AC50 [1] | AC50 [2]
Cn1c(SCC(=O)N2CCCc3ccccc32)ncc(C(=O)Nc2ccc(F)cc2)c1=O | – | 35.5 µM [falling, single point]
Cc1ccc(C(=O)Nc2ncc(Cc3ccc(SC(F)F)cc3)s2)cc1 | 3.66 µM [falling, full curve] | 11.6 µM [rising, partial curve, poor fit]
Cc1ncoc1C(=O)NCCC(c1ccccc1)c1ccccc1 | – | 14.1 µM [falling, partial curve, poor fit]
COc1ccc(NC(=O)CSc2nc(N)c(-c3ccccc3)c(=O)[nH]2)cc1 | – | 6.51 µM [rising, single point]
CCCCN1C(=O)C(NC(=O)C2CC2)(C(F)(F)F)C2=C1CC(C)(C)CC2=O (stereo unspecified) | – | 5.62 µM [rising, partial curve, poor fit]
CCc1nnc(NC(=O)c2cc(-c3ccccc3)nn2-c2ccccc2)s1 | – | 5.01 µM [falling, partial curve, poor fit]
CN1C(=O)C2(Nc3ccccc3-c3nc4ccccc4n32)c2ccccc21 (stereo unspecified) | – | 22.4 µM [falling, single point]
CCOC(=O)c1c(C)c2c(=O)[nH]cnc2n1-c1ccccc1 | – | 1 µM [rising, full curve, poor fit]
CCNC(=O)c1sc(-c2ccccc2)nc1C | – | 3.16 µM [rising, single point]
CCn1c(SCC(=O)N2CCCc3ccccc32)nc2ccccc2c1=O | – | 4.47 µM [falling, full curve]
Cc1nn(CC(=O)N2CCc3ccccc32)c(C)c1S(=O)(=O)NC(C)(C)C | – | 2.91 µM [rising, partial curve, poor fit]
Cc1ccc(S(=O)(=O)N(C)c2ccc(C(=O)Nc3ccccn3)cc2)cc1 | – | 23.1 µM [falling, single point]
Cc1c(Cl)cccc1NC(=O)C1NC(=O)CC1c1ccccc1 (stereo unspecified) | – | 3.26 µM [falling, partial curve, poor fit]
Cc1ccc(S(=O)(=O)NC(CC(C)C)C(=O)Oc2ccc3c4c(c(=O)oc3c2)CCC4)cc1 (stereo unspecified) | – | 35.5 µM [falling, single point]
Cc1ccc(C)c(N2CCN(C(=O)c3ccc(CS(=O)Cc4ccc(Cl)cc4)o3)CC2)c1 (stereo unspecified) | – | 10 µM [falling, partial curve]
O=C(/C=C\c1ccc2c(c1)OCO2)NC1CC(=O)N(c2ccc(F)cc2)C1 (stereo unspecified) | – | 25.1 µM [falling, single point]
COCCSc1ccccc1C(=O)Nc1ccccc1C(C)C | – | 15.8 µM [rising, single point]
O=C1CC(c2ccco2)CC2=C1C(c1ccccc1)n1nc(C(F)(F)F)nc1N2 (stereo unspecified) | – | 29.1 µM [falling, single point]
Cc1nnc2ccc(-c3ccc(NS(=O)(=O)c4ccccc4F)cc3)nn12 | – | 9.2 µM [rising, partial curve, poor fit]

Reference: PubChem BioAssay AID493014 (National Center for Advancing Translational Sciences (NCATS), 2011)
